Measurements: PubChem BioAssay AID504834 (National Center for Advancing Translational Sciences (NCATS), 2011)
Hit rate of the full screen: of about 320,000 compounds, about 22,000 (6.9%) were called active. Inconclusive means that the source gave no clear call. Such entries were picked first, then a sample of the others. Calls come from the whole dose curve; as a rule, active = well fitted inhibition curve with a large enough effect; inconclusive = small, poorly fitted or top-dose-only effect, or another doubt; inactive = no such curve, though single readings can be large or run the other way. Where the call is inconclusive, the potency comes from a doubtful curve fit.

Assay: Primary qHTS for delayed death inhibitors of the malarial parasite plastid, 96 hour incubation
Details: P. falciparum luciferase reporter growth; series mostly up to 28.7 µM; activity change, negative = inhibition: at the top concentration
Method in brief: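 Cell-based qHTS: luciferase-tagged P. falciparum in erythrocytes (2% hematocrit, 0.05% parasitemia final) incubated with compounds for 96 hours, 37 C, 5% CO2; luciferase detection reagent then added and luminescence measured.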
% is set by controls: 0 for no effect and ±100 for the full control effect; potency is the fitted concentration of half-maximal effect.

Row | SMILES | Potency | activity change, negative = inhibition
1 | Cc1occc1C(=O)N1CCN(Cc2ccccc2)CC1 | inconclusive: 11.7 µM [inhibitor, single point] | 
2 | COc1ccc(/C(C)=N/Nc2nc(C)c(C(C)=O)s2)cc1 |  | inactive: 2.6%
3 | CCc1ccccc1N(CC(=O)O)S(C)(=O)=O | active: 14.7 µM | 
4 | CC(C)n1cc(/C=C2/NC(=O)N(c3cccc(Cl)c3)C2=O)c2ccccc21 | active: 9.28 µM | 
5 | COc1ccc(C2Nc3ccccc3C(=O)N2Cc2ccco2)cc1COc1ccccc1F (centres undefined) | active: 4.15 µM | 
6 | CC(=O)Nc1ccc(Nc2cc(C)nc(Nc3ccc(NC(C)=O)cc3)n2)cc1 | active: 2.94 µM | 
7 | CCN(CC)C(=O)CC(c1ccc(N(C)C)cc1)c1c(O)cc(OC)cc1OC (centres undefined) | inconclusive: 16.5 µM [inhibitor, single point] | 
8 | O=C(NCc1ccccc1)c1nc2ccccc2s1 |  | inactive: 111%
9 | COc1ccc([N+](=O)[O-])cc1NC(=O)c1ccc(N(Cc2ccccc2Cl)S(C)(=O)=O)cc1 | inconclusive: 4.65 µM [inhibitor, partial curve] | 
10 | CCOC(=O)Cn1nc(NC(=O)c2ccc(C(=O)OC)cc2)cc1C |  | inactive: 7.88%
11 | O=C(NCCCn1ccnc1)Nc1ccc(Cl)cc1Cl |  | inactive: -24.9%
12 | O=C(NCCc1ccccc1)c1cccc(N2C(=O)C3CC=CCC3C2=O)c1 (centres undefined) | inconclusive: 13.1 µM [inhibitor, single point] | 
13 | CSc1ncccc1C(=O)OCC(=O)NCc1ccc2c(c1)OCO2 |  | inactive: 14.3%
14 | CC(CNC(=O)c1cccs1)c1ccc([N+](=O)[O-])cc1 (centres undefined) | inconclusive: 0.465 µM [inhibitor, full curve, poor fit] | 
15 | O=C(N/N=C/C=C/c1ccc2c(c1)OCO2)C(O)c1ccccc1 (centres undefined) |  | inactive: 24.6%
16 | COc1ccccc1N(C)S(=O)(=O)c1ccc(C(=O)NC(C)(C)C)cc1 | inconclusive: 18.5 µM [inhibitor, partial curve, poor fit] | 
17 | O=C1CC(/C=C/c2ccco2)=Nc2ccccc2N1 |  | inactive: 27.7%
18 | CCCN1CCN(CC(=O)Nc2nc3ccccc3s2)CC1 |  | inactive: 11%
19 | O=C(Nc1cccc(-c2nnc(-c3ccccc3)o2)c1)c1ccc(Br)o1 |  | inactive: 23.9%
20 | CC(=O)Cn1nnc(-c2ccc(C(F)(F)F)cc2)n1 |  | inactive: 36.1%
21 | CCCCN(C(=O)CCNC(=O)NC12CC3CC(CC(C3)C1)C2)c1c(N)n(CCCC)c(=O)[nH]c1=O | inconclusive: 10.4 µM [inhibitor, single point] | 
22 | CCCCN(C(=O)NC(=O)Nc1cccc(C)c1C)S(C)(=O)=O | inconclusive: 2.62 µM [inhibitor, single point] | 
23 | COc1cccc(/C=N/NC(=O)CN2CC(c3ccccc3)CC2=O)c1O (centres undefined) | inconclusive: 18.5 µM [inhibitor, single point] | 
24 | CCN(CC)c1ccc2cc(-c3nc4ccccc4[nH]3)c(=O)oc2c1 |  | inactive: 214%
25 | COc1ccccc1CNC(=O)C1CCC(CNS(=O)(=O)c2ccc(C)cc2)CC1 (centres undefined) | active: 7.38 µM | 

Row | SMILES | Potency | activity change, negative = inhibition
26 | Cc1cc(C)cc(NC(=O)COC(=O)CC2CCCC2)c1 |  | inactive: 5.11%
27 | O=C(CSc1n[nH]c(-c2ccncc2)n1)Nc1ccc(F)cc1 |  | inactive: -1.55%
28 | CC(=O)c1cc2c(cc1NC(=O)CCn1cnnn1)OCO2 | inconclusive: 0.465 µM [inhibitor, full curve, poor fit] | 
29 | CC1CC(C)CN(CCCNS(=O)(=O)c2ccc3c(c2)CCN3C(=O)C2CC2)C1 (centres undefined) | inconclusive: 13.1 µM [inhibitor, single point] | 
30 | Cc1ccc(C2CC(c3ccccc3)=NN2C(=S)Nc2ccccc2)o1 (centres undefined) | inconclusive: 18.5 µM [inhibitor, single point] | 
31 | CC1(C)CN(c2cccc(-c3ccnc4ncnn34)c2)C1=O | inconclusive: 18.5 µM [inhibitor, single point] | 
32 | CCOC(=O)CN(C(=O)c1snc(C(N)=O)c1N)C(C(=O)NCCC(C)C)c1ccc(F)cc1 (centres undefined) | inconclusive: 0.104 µM [inhibitor, full curve, poor fit] | 
33 | CCOc1ccc(N2C(=O)CC(Cc3cc(C)cc(C)c3)C2=O)cc1 (centres undefined) | inconclusive: 4.15 µM [inhibitor, single point] | 
34 | C/C=C(/C)C(=O)O[C@@H]1c2c(ccc3ccc(=O)oc23)OC(C)(C)[C@@H]1OC(=O)/C(C)=C\C | active: 6.57 µM | 
35 | CCn1c(O)c(N=NC(=O)CNC(=O)c2ccco2)c2ccccc21 |  | inactive: 43.7%
36 | O=C(/C=C/c1ccccc1[N+](=O)[O-])N1CCc2ccccc2C1 | inconclusive: 0.329 µM [inhibitor, partial curve, poor fit] | 
37 | COc1cccc(CN(C(=O)c2cc3ccccc3oc2=O)C2CCS(=O)(=O)C2)c1 (centres undefined) | active: 6.57 µM | 
38 | O=C(CCc1nnc2n(Cc3ccccc3)c(=O)c3ccccc3n12)NCCN1CCOCC1 | inconclusive: 18.5 µM [inhibitor, single point] | 
39 | CCCCc1nnc(SCC(=O)Nc2nccs2)n1CC |  | inactive: 43.6%
40 | COc1ccc(C(=O)O/N=C(\N)Cc2cccs2)cc1OC |  | inactive: -25.5%
41 | CCOC(=O)c1ccc(NC2c3ccccc3C(=O)N2c2ccc(C)cn2)cc1 (centres undefined) | active: 11.7 µM | 
42 | COc1ccc(S(=O)(=O)N2CCN(CC(=O)Nc3cccc(OC)c3)CC2)cc1 | active: 13.1 µM | 
43 | Cn1c(NC(=O)C[n+]2cc(-c3ccc(Cl)cc3)n3c2CCC3)cc(=O)n(C)c1=O | active: 0.329 µM | 
44 | O=C(N/N=C/c1c(-c2ccccc2)[nH]c2ccccc12)c1cccnc1 | inconclusive: 18.5 µM [inhibitor, single point] | 
45 | O=S1(=O)C=C(SCc2ccc(Cl)c(Cl)c2)Nc2ccccc21 | inconclusive: 10.4 µM [inhibitor, partial curve, poor fit] | 
46 | CCOC(=O)c1c(NC(=S)NCC2CCCO2)sc(C)c1C (centres undefined) |  | inactive: 49.8%
47 | CC(=O)Oc1ccccc1-c1nc(/C=C/c2ccccc2)no1 |  | inactive: -2.83%
48 | C/C(=N\O)C1CC(CC(=O)O)C1(C)C (centres undefined) |  | inactive: 3.35%
49 | CC(=O)O[C@@]12CO[C@@H]1C[C@H](O)[C@@]1(C)C(=O)[C@H](O)C3=C(C)[C@@H](OC(=O)C(O)[C@@H](NC(=O)OC(C)(C)C)c4ccccc4)C[C@@](O)([C@@H](OC(=O)c4ccccc4)[C@H]21)C3(C)C (some centres undefined) | active: 0.0135 µM | 

A different layout for 3 compounds above.

| Row | SMILES | Potency | activity change, negative = inhibition |
| --- | --- | --- | --- |
| 38 | O=C(CCc1nnc2n(Cc3ccccc3)c(=O)c3ccccc3n12)NCCN1CCOCC1 | inconclusive: 18.5 µM [inhibitor, single point] |  |
| 43 | Cn1c(NC(=O)C[n+]2cc(-c3ccc(Cl)cc3)n3c2CCC3)cc(=O)n(C)c1=O | active: 0.329 µM |  |
| 49 | CC(=O)O[C@@]12CO[C@@H]1C[C@H](O)[C@@]1(C)C(=O)[C@H](O)C3=C(C)[C@@H](OC(=O)C(O)[C@@H](NC(=O)OC(C)(C)C)c4ccccc4)C[C@@](O)([C@@H](OC(=O)c4ccccc4)[C@H]21)C3(C)C (some centres undefined) | active: 0.0135 µM |  |
